Patent US20190256853
Construct, isoform or probe ends are uncertain for at least one entry. For part of these data: Negatives hold for the conditions tested.

How the values were obtained:
[1] = system: polyclonal IgG (human plasma) (Homo sapiens); experiment: SPR; details: purified native protein, protein details: purity >95%, single-stranded DNA
[2] = system: IgG Fc fragment (human polyclonal) (Homo sapiens); experiment: SELEX; details: purified native protein, protein details: Jackson ImmunoResearch 009-000-008, single-stranded DNA
[3] = system: polyclonal IgG (human plasma) (Homo sapiens); experiment: pull-down; details: 5' triethylene glycol spacer (SPR); 5' C6 amino spacer and 3' idT (affinity support); affinity chromatography, MES pH 5.5, 5 mM MgCl2; eluted at pH 7.4; yield 82% purified IgG, 66% plasma; purified native protein; protein details: purity >95%; label: 5' biotin (SPR); single-stranded DNA

Row | Sequence | binding result ([1]; 5' triethylene glycol spacer (SPR), 5' C6 amino spacer and 3' idT (affinity support), 200 nM IgG, pH 5.50, resists 2 M NaCl, released at pH 7.40, label: 5' biotin (SPR)) | binding result ([1]; 5' triethylene glycol spacer (SPR), 5' C6 amino spacer and 3' idT (affinity support), no significant binding at pH higher than 6.0, highest binding at pH 5.30, label: 5' biotin (SPR)) | selection result ([2]; 5' triethylene glycol spacer (SPR), 5' C6 amino spacer and 3' idT (affinity support), label: 5' biotin (SPR)) | binding result [3] | binding result ([1]; 5' triethylene glycol spacer, 200 nM IgG, pH 5.50, resists 2 M NaCl, released at pH 7.40, label: 5' biotin) | selection result ([2]; 5' triethylene glycol spacer, label: 5' biotin)
1 | GGGTCAATGCCAGGTCTCCCCAGCCTCATCTCACGGCATAGTCTCGCCACACTGGAAATCGGCTCGCAAGCAGTC [A6-2] | binds | no binding | selected | binds | – | –
2 | GGGTCAATGCCAGGTCTCCACGGTATAGTCTCGCCCAGTGCCCTTTGTTGGACTTCCTATCGGCTCGCAAGCAGTC [A6-8] | – | – | – | – | binds | selected
